# Assay results: PubChem BioAssay AID540276 (National Center for Advancing Translational Sciences (NCATS), 2011)
# Where “and” joins values, the source holds several entries; their conditions need not be identical. Equal entries are not always repeated. The whole screen tested about 300,000 compounds, of which about 5,400 (1.8%) were called active. Inconclusive results, whose numbers are uncertain, are shown with a selection of clear calls. Calls follow the shape of the full dose curve; tested in HEK293 cells. Potencies of inconclusive entries are doubtful fits and often do not repeat. Residues, ends and D or L forms follow the SMILES beside them. *: point of attachment. Boc = CC(C)(C)OC(=O)*; Bn = c1ccc(C*)cc1
# Test: qHTS for inhibitors of binding or entry into cells for Marburg Virus
# Conditions: Marburg virus pseudotyped entry inhibition, cell reporter; activity change, negative = inhibition: at 37.8 µM (top of the series) unless noted
# % is scaled to controls: 0 for no effect and ±100 for the full control effect; potency is read from the fitted curve at half-maximal effect.
Structure (SMILES),Potency,"activity change, negative = inhibition"
Cc1cc([N+](=O)[O-])ccc1NS(=O)(=O)c1ccccc1,"inconclusive: 5.62 µM [inhibitor, partial curve]",–
Cc1ccc(C(=O)/C=C/Nc2ccccc2C(N)=O)cc1,"inconclusive: 8.91 µM [inhibitor, partial curve, poor fit]",–
Cc1cc(Cl)c(S(=O)(=O)N2CCN(c3ccc(F)cc3)CC2)cc1OCC(=O)NC1CCCCC1,active: 10.3 µM,–
COc1ccc2[nH]c(=O)c(CN(CCCN(C)C)C(=O)Nc3ccccc3)cc2c1,"inconclusive: 17.8 µM [inhibitor, single point]",–
COc1ccc(S(=O)(=O)N2CCOCC2)cc1NC(=O)CN1CCCC1,"inconclusive: 35.5 µM [activator, single point]",–
CCCCCC(=O)NC(=S)Nc1cccc(C(C)=O)c1,"inconclusive: 6.51 µM [activator, single point]",–
CC(=O)c1sc(N/N=C2\CC3CC2C(C)C3(C)C)nc1C (stereo not drawn),"inconclusive: 0.562 µM [activator, partial curve, poor fit]",–
CCOc1ccc(-n2nnnc2-c2nc3ccccc3s2)cc1,"inconclusive: 2 µM [activator, single point]",–
Cc1c(C(=O)O)cccc1-n1c(C)cc(/C=C(/C#N)C(=O)NCc2ccccc2)c1C,"inconclusive: 35.5 µM [activator, single point]",–
CC1(C)CCSC(/C=C/c2ccccc2)=N1,"inconclusive: 35.5 µM [inhibitor, single point]",–
Cc1ccc(O)c(NC(=O)c2noc3c2CCCCC3)c1,"inactive and inconclusive: 1.41 µM [activator, partial curve, poor fit]",–
O=C(Nc1ccc2c(c1)OCO2)c1cc(Cl)ccn1,"inconclusive: 0.112 µM [activator, full curve, poor fit]",–
O=C(CSc1nnc(NC(=O)c2c(F)cccc2F)s1)NCc1ccco1,"inconclusive: 35.5 µM [activator, single point]",–
CCCN1CC(O)=C(C#N)C1=O,"inconclusive: 6.31 µM [inhibitor, single point]",–
Cc1ccc(C(=O)/C=C/c2cn(CC(O)CN3CCc4ccccc43)c3ccccc23)cc1 (stereo not drawn),"inconclusive: 8.91 µM [inhibitor, partial curve, poor fit]",–
O=C(CCc1ccccc1)NNc1ccc(F)cc1,"inconclusive: 7.94 µM [inhibitor, partial curve, poor fit]",–
O=C(NCc1cccc(Cl)c1)c1ccc2nc[nH]c2c1,"inconclusive: 0.501 µM [inhibitor, full curve, poor fit]",–
COC(=O)[C@@H](N)Cc1ccc(O)c(O)c1,"inactive and inconclusive: 355 nM [inhibitor, partial curve, poor fit] and inconclusive: 32.6 µM [activator, single point]",–
COc1ccc(-c2noc(COc3cc(C)c(Br)c(C)c3)n2)cc1OC,inactive,–
COc1ccc(OC)c(CNC(=O)c2cc3cc4ccc(OC)cc4nc3o2)c1,inactive,–
CN(C)/C=N/c1nc2nccc(-c3ccc(Cl)cc3)n2n1,"inconclusive: 0.631 µM [inhibitor, full curve, poor fit]",–

Structure (SMILES),Potency,"activity change, negative = inhibition"
O=C(c1ccc2c(=O)n(CCc3ccccc3)c(=O)[nH]c2c1)N1CCN(c2ccccc2)CC1,inactive,–
COc1ccc(OC)c(/C=C/C(=O)OCC(=O)c2c(N)n(C)c(=O)n(C)c2=O)c1,"inconclusive: 12.6 µM [activator, single point]",–
COCCN1CCc2c(C)nc3c(-c4ccc(OC)c(OC)c4)cnn3c21,"inconclusive: 18.3 µM [activator, partial curve, poor fit]",–
COc1ccc2c(c1)c(CC(=O)O)c(C)n2Cc1ccc(Cl)cc1,"inconclusive: 5.01 µM [inhibitor, full curve]",–
C/C(N)=C(/C#N)C(=O)COc1ccc(Cl)cc1Cl,"inconclusive: 12.6 µM [activator, single point]",–
Cc1oc2ncn(C)c(=O)c2c1C(=O)Nc1ccccn1,inactive,–
COc1ccccc1/C=C/C=N/NC(=O)c1ccc(=O)n(C)c1,inactive,–
O=C(CN1C(=O)COc2ccc(S(=O)(=O)N3CCOCC3)cc21)N1CCN(c2cccc(C(F)(F)F)c2)CC1,"inconclusive: 5.62 µM [activator, single point]",–
CC(=O)CCc1oc2ccc(C)cc2c1Cc1ccccc1,"inconclusive: 0.631 µM [activator, full curve, poor fit]",–
CC(C)(C)c1ccc(C(=O)NCCC(=O)N2CCN(c3ncccn3)CC2)cc1,inactive,–
CCOc1ccc2ncc(S(=O)(=O)c3ccc(C)cc3)c(N3CCC4(CC3)OCCO4)c2c1,"inconclusive: 17.8 µM [inhibitor, partial curve, poor fit]",–
CC(C)CC(NC(=O)C(NC(=O)C(Cc1ccc(OCc2ccccc2)cc1)NC(=O)OC(C)(C)C)C(C)C)C(N)=O (stereo not drawn) (Boc-Tyr(Bn)-Val-Leu-NH2; configuration not given here),"inconclusive: 3.98 µM [activator, full curve, poor fit]",–
Cc1ccc(CN(C(=O)COc2ccc(Cl)c(C)c2)c2ccccn2)o1,"inconclusive: 0.562 µM [activator, full curve, poor fit]",–
COc1ccc(-c2csc(NC(=O)C3CC(=O)N(Cc4ccco4)C3)n2)cc1 (stereo not drawn),"inconclusive: 2.51 µM [inhibitor, full curve, poor fit]",–
COc1ccc(NC(=O)CC2S/C(=N\c3nccs3)N(C)C2=O)cc1 (stereo not drawn),"inconclusive: 5.01 µM [activator, partial curve, poor fit]",–
CCC(=O)Nc1ccccc1-c1nc2ccccc2n(CC(=O)c2ccc(C)c(C)c2)c1=O,"inconclusive: 35.5 µM [inhibitor, single point]",–
CCCNC(=S)NC1CC2CCC(C1)N2Cc1ccccc1 (stereo not drawn),"inconclusive: 3.26 µM [inhibitor, full curve, poor fit]",–
COc1ccc(S(=O)(=O)n2cnc3cc(C)c(C)cc32)cc1C,"inconclusive: 18.3 µM [inhibitor, single point]",–
CCCCN(CCCC)CP(=O)(c1ccccc1)c1ccccc1,"inconclusive: 12.6 µM [inhibitor, partial curve, poor fit]",–
Cc1ccc(C(c2ccc(C)c(C)c2)C(O)C2OC(=O)C(O)C2O)cc1C (stereo not drawn),inactive,–
O=C(Cc1c[nH]c2ccccc12)N/N=C/c1cccc(F)c1,"inconclusive: 2.51 µM [inhibitor, full curve, poor fit]",–

Structure (SMILES),Potency,"activity change, negative = inhibition"
COc1ccc(C(=O)Nc2nnc(-c3ccc(F)cc3)s2)c(OC)c1,"inconclusive: 35.5 µM [activator, single point]",–
O=C(OCC(=O)c1c[nH]c2ccccc12)c1cc2ccccc2cc1O,"inconclusive: 29.1 µM [inhibitor, single point]",–
O=C(NCc1ccccc1Cl)c1cc2c(s1)-c1ccccc1SC2,"inconclusive: 3.16 µM [inhibitor, partial curve, poor fit]",–
CN1C2CCC1CC(NC(=O)CSCc1ccc(Cl)cc1Cl)C2 (stereo not drawn),"inconclusive: 35.5 µM [inhibitor, single point]",–
COCCCN1C(=O)c2ccccc2C1C(=O)NC1CCCCCC1 (stereo not drawn),"inconclusive: 29.1 µM [inhibitor, single point]",–
O=C(Cn1ncc2c3ccccc3n(Cc3ccccc3F)c2c1=O)NC1CCCCCC1,inactive,–
Cc1oc(CSCC2CCCO2)cc1C(=O)O (stereo not drawn),–,inconclusive: 1.14% [activator]
O=C(CCCc1nc2ccccc2s1)Nc1nccs1,"inconclusive: 11.2 µM [inhibitor, partial curve, poor fit]",–
O=C1C(Cl)=C(NCCc2ccccc2)C(=O)N1CCc1ccccc1,inactive,–
C[N+]12CCC(CC1)C(=C(c1ccccc1)c1ccccc1)C2,inactive,–
Cc1ccc(OCC(=O)N/N=C/c2cn[nH]c2-c2ccc(Cl)c(Cl)c2)cc1,"inconclusive: 35.5 µM [inhibitor, single point]",–
CCOc1ccccc1NC(=O)CSc1nnc(N)s1,inactive,–
Cc1cc(CSc2ccccc2)ccc1NC(=O)c1ccc(Br)cc1,"inconclusive: 28.2 µM [inhibitor, single point]",–
Cc1ccc(S(=O)(=O)N(CCC(=O)NCC(c2ccccc2)N(C)C)c2ccccc2)cc1 (stereo not drawn),"inconclusive: 35.5 µM [inhibitor, single point]",–
COC(=O)c1cc(C)nc2c1C(=O)C(=O)C=C2N1CCOCC1,"inconclusive: 2.51 µM [inhibitor, full curve, poor fit]",–
CCCN1C(=O)c2[nH]nc(-c3ccccc3O)c2C1c1cccc(OCc2ccccc2)c1 (stereo not drawn),"inconclusive: 14.1 µM [inhibitor, single point]",–
CN(CC(=O)Nc1ccccc1Br)CC(=O)NC(c1ccccc1)c1ccccc1,"inconclusive: 11.2 µM [inhibitor, partial curve, poor fit]",–
COc1cc(NC(=O)C2CC(c3ccccc3O)=NO2)c(OC)cc1Cl (stereo not drawn),"inconclusive: 15.8 µM [inhibitor, single point]",–
COc1ccc(-c2nc3c(Br)c(N)c(Br)cc3o2)cc1,inactive,–
CCN(CC)S(=O)(=O)c1cc(NS(=O)(=O)c2cccc(Cl)c2)ccc1C,"inconclusive: 20 µM [inhibitor, partial curve, poor fit]",–
CCOC(=O)CSc1nc(N)c(C#N)c(-c2cccs2)c1C#N,"inconclusive: 35.5 µM [inhibitor, single point]",–

# No new results follow: four of the compounds above.
Structure (SMILES),Potency,"activity change, negative = inhibition"
COC(=O)c1cc(C)nc2c1C(=O)C(=O)C=C2N1CCOCC1,"inconclusive: 2.51 µM [inhibitor, full curve, poor fit]",–
CCCN1C(=O)c2[nH]nc(-c3ccccc3O)c2C1c1cccc(OCc2ccccc2)c1 (stereo not drawn),"inconclusive: 14.1 µM [inhibitor, single point]",–
CN(CC(=O)Nc1ccccc1Br)CC(=O)NC(c1ccccc1)c1ccccc1,"inconclusive: 11.2 µM [inhibitor, partial curve, poor fit]",–
COc1cc(NC(=O)C2CC(c3ccccc3O)=NO2)c(OC)cc1Cl (stereo not drawn),"inconclusive: 15.8 µM [inhibitor, single point]",–
